SMILES strings stand for the structures. Some of the results follow. Many values rest on one well or one pass, so single values are uncertain.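 Imaging used 1,536-well plates; nuclei positive for cleaved PARP by antibody were divided by total DNA-stained nuclei to yield the apoptosis fraction. Doses for screening kept most cells viable, and cell lines differ markedly in resting and induced cleaved-PARP levels.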

Test systems include 501Mel; A101D; A2058; A375; C32; CBRC008; CBRC014; CBRC016; CBRC017; CBRC034; COLO792; COLO800; COLO829; G361; IPC-298; IST-MEL1; LB2518-MEL; LOXIMVI; MEL-HO.
Common to all, as to experiment: cleaved PARP positive nuclei fraction relative to DMSO control; melanoma cells; higher = more apoptosis
Common to all, as to conditions: library dose: low library concentration; 72 h

For the compound `O=C(/C=C/c1cccnc1)NCCCCC1CCN(C(=O)c2ccccc2)CC1` + CS(=O)(=O)CCNCc1ccc(-c2ccc3ncnc(Nc4ccc(OCc5cccc(F)c5)c(Cl)c4)c3c2)o1 [lapatinib] (first compound 0.01 µM, partner dose 0.8 µM), the “cleaved PARP positive nuclei fraction” value with 501Mel was found to be 119%; with A101D, 99.8%; with A2058, 215%; with A375 it was 32.5%; in the test with C32, 75.4%; with CBRC008, 2670%. Moreover, the “cleaved PARP positive nuclei fraction” value with CBRC014 was found to be 115%; in the test on CBRC016 (line from a melanoma biopsy), 1670%; in the test with CBRC017, 634%; in the test on CBRC034 (line from a melanoma biopsy) it was 895%; in the test on COLO792, 535%; with COLO800, 144%. Moreover, the “cleaved PARP positive nuclei fraction” value in the test with COLO829 is 228%; with G361 it was 3370%; with IPC-298, 1130%; in the test on IST-MEL1 it was 65.2%; in the test on LB2518-MEL, 344%; in the test on LOXIMVI, 116%. In addition, in the test with MEL-HO, the “cleaved PARP positive nuclei fraction” value came out at 363%.

For `Cc1cc(Nc2cc(N3CCN(C)CC3)nc(Sc3ccc(NC(=O)C4CC4)cc3)n2)n[nH]1` [Tozasertib] + CN(c1ncccc1CNc1nc(Nc2ccc3c(c2)CC(=O)N3)ncc1C(F)(F)F)S(C)(=O)=O [PF562271] (first compound 0.006 µM, partner dose 0.08 µM), the “cleaved PARP positive nuclei fraction” value in the test on 501Mel worked out at 79.9%; in the test with A101D it was 97.7%; in the test on A2058 it was 72.8%; in the test with A375 it was 215%; in the test with C32 it was 79.6%; with CBRC008, 33%. Further, the “cleaved PARP positive nuclei fraction” value in the test with CBRC014 amounted to 100%; in the test on CBRC016, 179%; with CBRC017 it was 215%; in the test on CBRC034, 31.8%; in the test with COLO792 it was 168%; with COLO800, 75.1%. The “cleaved PARP positive nuclei fraction” value in the test on COLO829 amounted to 134%; in the test on G361 it was 74.6%; in the test with IPC-298, 108%; with IST-MEL1, 29.4%; with LB2518-MEL it was 61.4%; with LOXIMVI it was 48.3%. In the test on MEL-HO, the “cleaved PARP positive nuclei fraction” value is 185%.

In the case of `Cc1cc(Nc2cc(N3CCN(C)CC3)nc(Sc3ccc(NC(=O)C4CC4)cc3)n2)n[nH]1` [Tozasertib] + COc1cc([C@@H]2c3cc4c(cc3[C@@H](O[C@@H]3O[C@@H]5CO[C@@H](C)O[C@H]5[C@H](O)[C@H]3O)[C@H]3COC(=O)[C@H]23)OCO4)cc(OC)c1O [etoposide] (first compound 0.006 µM, partner dose 0.02 µM), the “cleaved PARP positive nuclei fraction” value was 82.6% with 501Mel; 151% in the test on A101D; 143% in the test with A2058; 77.9% in the test on A375; 82% with C32; 196% in the test on CBRC008 (line from a melanoma biopsy). The “cleaved PARP positive nuclei fraction” value in the test with CBRC014 stood at 94.4%; with CBRC016, 68.9%; in the test on CBRC017 (line from a melanoma biopsy), 91.7%; in the test on CBRC034, 76%; in the test with COLO792, 78.8%; in the test on COLO800, 157%. The “cleaved PARP positive nuclei fraction” value in the test on COLO829 worked out at 91.7%; with G361, 129%; in the test with IPC-298, 43.7%; in the test on IST-MEL1, 63.1%; in the test with LB2518-MEL it was 201%; in the test with LOXIMVI it was 88.7%. The “cleaved PARP positive nuclei fraction” value in the test on MEL-HO came to 282%.

In the case of `Cc1cn(-c2cc(NC(=O)c3ccc(C)c(Nc4nccc(-c5cccnc5)n4)c3)cc(C(F)(F)F)c2)cn1` [nilotinib] + Cn1sc(=O)n(Cc2ccccc2)c1=O [TDZD-8] (first compound 0.2 µM, partner dose 0.4 µM), the “cleaved PARP positive nuclei fraction” value in the test on 501Mel is 45.5%; in the test with A101D, 60.2%; with A2058, 98.7%; in the test on A375 it was 203%; in the test on C32 it was 131%; in the test on CBRC008 it was 23.5%. Moreover, the “cleaved PARP positive nuclei fraction” value in the test with CBRC014 was 84.4%; in the test with CBRC016, 84.1%; in the test on CBRC017, 94.8%; in the test with CBRC034, 69.7%; in the test with COLO792, 79.2%; in the test with COLO800, 242%. Moreover, the “cleaved PARP positive nuclei fraction” value is 86.8% in the test on COLO829; 129% in the test on G361; 83.6% in the test on IPC-298; 62.6% in the test with IST-MEL1; 194% with LB2518-MEL; 113% with LOXIMVI. The “cleaved PARP positive nuclei fraction” value with MEL-HO stood at 60.4%.

Take `N#CC[C@H](C1CCCC1)n1cc(-c2ncnc3[nH]ccc23)cn1` [ruxolitinib] + CCCCCCCCCCCCCCCCCCOP(=O)([O-])OC1CC[N+](C)(C)CC1 [Perifosine] (first compound 1 µM, partner dose 0.4 µM): the “cleaved PARP positive nuclei fraction” value in the test with 501Mel was determined as 68.9%; in the test with A101D, 74.6%; in the test with A2058, 168%; in the test with A375 it was 77.2%; in the test on C32, 65.2%; in the test with CBRC008, 67.8%. The “cleaved PARP positive nuclei fraction” value was 112% in the test on CBRC014 (line from a melanoma biopsy); 75.2% in the test on CBRC016; 125% in the test on CBRC017; 31.3% with CBRC034; 118% with COLO792; 142% in the test with COLO800. The “cleaved PARP positive nuclei fraction” value in the test with COLO829 stood at 72.8%; in the test with G361, 67.4%; in the test with IPC-298, 123%; in the test on IST-MEL1, 235%; in the test on LB2518-MEL it was 78.7%; in the test with LOXIMVI, 17.2%. Further, the “cleaved PARP positive nuclei fraction” value in the test on MEL-HO amounted to 146%.

`CCCCCCCCCCCCCCCCCCOP(=O)([O-])OC1CC[N+](C)(C)CC1` [Perifosine] + C[C@@H](N)c1ccc(C(=O)Nc2ccnc3[nH]ccc23)cc1 [RKI983] (first compound 0.4 µM, partner dose 0.4 µM): the “cleaved PARP positive nuclei fraction” value amounted to 76.8% in the test with 501Mel; 131% in the test on A101D; 285% in the test on A2058; 421% in the test with A375; 170% in the test on C32; 94.2% in the test on CBRC008. In addition, the “cleaved PARP positive nuclei fraction” value worked out at 115% in the test with CBRC014; 174% in the test on CBRC016; 88.5% with CBRC017; 82.7% with CBRC034; 111% in the test with COLO792; 77.8% in the test on COLO800. Also, the “cleaved PARP positive nuclei fraction” value stood at 93% in the test with COLO829; 92.6% in the test with G361; 83.5% in the test on IPC-298; 61.6% with IST-MEL1; 86.1% in the test with LB2518-MEL; 165% in the test with LOXIMVI. The “cleaved PARP positive nuclei fraction” value with MEL-HO came out at 135%.

On to `CCCCCCCCCCCCCCCCCCOP(=O)([O-])OC1CC[N+](C)(C)CC1` [Perifosine] + Nc1ncn([C@H]2C[C@H](O)[C@@H](CO)O2)c(=O)n1 [decitabine] (first compound 0.4 µM, partner dose 0.1 µM), for which the “cleaved PARP positive nuclei fraction” value with 501Mel is 70.2%; in the test on A101D, 98.7%; in the test on A2058, 100%; in the test on A375 it was 254%; with C32, 81.2%; with CBRC008, 224%. Further, the “cleaved PARP positive nuclei fraction” value with CBRC014 worked out at 97.4%; with CBRC016 it was 237%; in the test on CBRC017, 114%; with CBRC034, 61.8%; in the test on COLO792, 31.3%; in the test on COLO800, 92.3%. Besides, the “cleaved PARP positive nuclei fraction” value in the test on COLO829 worked out at 84.5%; with G361, 117%; in the test with IPC-298, 40.5%; with IST-MEL1 it was 80.2%; with LB2518-MEL it was 113%; in the test with LOXIMVI, 87.8%. Further, the “cleaved PARP positive nuclei fraction” value with MEL-HO came to 88.4%.
